# Data reported in the supplement of paper PMC12595434, “Development of retinoid nuclear receptor pathway antagonists through targeting aldehyde dehydrogenase 1A3” (iScience, 2025).
# Protein sequences, listed by entry. Tags and fused reporters are not part of them. Lines headed by an entry give the natural chain unless they say otherwise; changes in a name come on top.
# UniProt Q6ZUT6: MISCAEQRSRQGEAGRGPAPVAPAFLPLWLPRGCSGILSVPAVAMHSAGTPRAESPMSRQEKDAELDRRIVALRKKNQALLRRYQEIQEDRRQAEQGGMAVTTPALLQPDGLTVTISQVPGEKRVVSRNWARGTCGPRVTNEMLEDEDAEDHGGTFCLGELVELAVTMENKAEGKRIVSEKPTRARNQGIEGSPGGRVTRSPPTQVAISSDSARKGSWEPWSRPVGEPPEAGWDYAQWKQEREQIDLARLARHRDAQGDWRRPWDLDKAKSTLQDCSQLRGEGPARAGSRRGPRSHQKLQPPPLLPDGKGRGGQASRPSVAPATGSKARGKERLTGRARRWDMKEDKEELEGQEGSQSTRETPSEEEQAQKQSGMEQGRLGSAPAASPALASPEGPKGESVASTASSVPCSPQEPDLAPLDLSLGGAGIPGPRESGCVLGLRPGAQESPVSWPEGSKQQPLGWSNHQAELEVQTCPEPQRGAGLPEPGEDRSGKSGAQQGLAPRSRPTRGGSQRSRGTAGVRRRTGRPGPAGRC
# UniProt Q70CQ2: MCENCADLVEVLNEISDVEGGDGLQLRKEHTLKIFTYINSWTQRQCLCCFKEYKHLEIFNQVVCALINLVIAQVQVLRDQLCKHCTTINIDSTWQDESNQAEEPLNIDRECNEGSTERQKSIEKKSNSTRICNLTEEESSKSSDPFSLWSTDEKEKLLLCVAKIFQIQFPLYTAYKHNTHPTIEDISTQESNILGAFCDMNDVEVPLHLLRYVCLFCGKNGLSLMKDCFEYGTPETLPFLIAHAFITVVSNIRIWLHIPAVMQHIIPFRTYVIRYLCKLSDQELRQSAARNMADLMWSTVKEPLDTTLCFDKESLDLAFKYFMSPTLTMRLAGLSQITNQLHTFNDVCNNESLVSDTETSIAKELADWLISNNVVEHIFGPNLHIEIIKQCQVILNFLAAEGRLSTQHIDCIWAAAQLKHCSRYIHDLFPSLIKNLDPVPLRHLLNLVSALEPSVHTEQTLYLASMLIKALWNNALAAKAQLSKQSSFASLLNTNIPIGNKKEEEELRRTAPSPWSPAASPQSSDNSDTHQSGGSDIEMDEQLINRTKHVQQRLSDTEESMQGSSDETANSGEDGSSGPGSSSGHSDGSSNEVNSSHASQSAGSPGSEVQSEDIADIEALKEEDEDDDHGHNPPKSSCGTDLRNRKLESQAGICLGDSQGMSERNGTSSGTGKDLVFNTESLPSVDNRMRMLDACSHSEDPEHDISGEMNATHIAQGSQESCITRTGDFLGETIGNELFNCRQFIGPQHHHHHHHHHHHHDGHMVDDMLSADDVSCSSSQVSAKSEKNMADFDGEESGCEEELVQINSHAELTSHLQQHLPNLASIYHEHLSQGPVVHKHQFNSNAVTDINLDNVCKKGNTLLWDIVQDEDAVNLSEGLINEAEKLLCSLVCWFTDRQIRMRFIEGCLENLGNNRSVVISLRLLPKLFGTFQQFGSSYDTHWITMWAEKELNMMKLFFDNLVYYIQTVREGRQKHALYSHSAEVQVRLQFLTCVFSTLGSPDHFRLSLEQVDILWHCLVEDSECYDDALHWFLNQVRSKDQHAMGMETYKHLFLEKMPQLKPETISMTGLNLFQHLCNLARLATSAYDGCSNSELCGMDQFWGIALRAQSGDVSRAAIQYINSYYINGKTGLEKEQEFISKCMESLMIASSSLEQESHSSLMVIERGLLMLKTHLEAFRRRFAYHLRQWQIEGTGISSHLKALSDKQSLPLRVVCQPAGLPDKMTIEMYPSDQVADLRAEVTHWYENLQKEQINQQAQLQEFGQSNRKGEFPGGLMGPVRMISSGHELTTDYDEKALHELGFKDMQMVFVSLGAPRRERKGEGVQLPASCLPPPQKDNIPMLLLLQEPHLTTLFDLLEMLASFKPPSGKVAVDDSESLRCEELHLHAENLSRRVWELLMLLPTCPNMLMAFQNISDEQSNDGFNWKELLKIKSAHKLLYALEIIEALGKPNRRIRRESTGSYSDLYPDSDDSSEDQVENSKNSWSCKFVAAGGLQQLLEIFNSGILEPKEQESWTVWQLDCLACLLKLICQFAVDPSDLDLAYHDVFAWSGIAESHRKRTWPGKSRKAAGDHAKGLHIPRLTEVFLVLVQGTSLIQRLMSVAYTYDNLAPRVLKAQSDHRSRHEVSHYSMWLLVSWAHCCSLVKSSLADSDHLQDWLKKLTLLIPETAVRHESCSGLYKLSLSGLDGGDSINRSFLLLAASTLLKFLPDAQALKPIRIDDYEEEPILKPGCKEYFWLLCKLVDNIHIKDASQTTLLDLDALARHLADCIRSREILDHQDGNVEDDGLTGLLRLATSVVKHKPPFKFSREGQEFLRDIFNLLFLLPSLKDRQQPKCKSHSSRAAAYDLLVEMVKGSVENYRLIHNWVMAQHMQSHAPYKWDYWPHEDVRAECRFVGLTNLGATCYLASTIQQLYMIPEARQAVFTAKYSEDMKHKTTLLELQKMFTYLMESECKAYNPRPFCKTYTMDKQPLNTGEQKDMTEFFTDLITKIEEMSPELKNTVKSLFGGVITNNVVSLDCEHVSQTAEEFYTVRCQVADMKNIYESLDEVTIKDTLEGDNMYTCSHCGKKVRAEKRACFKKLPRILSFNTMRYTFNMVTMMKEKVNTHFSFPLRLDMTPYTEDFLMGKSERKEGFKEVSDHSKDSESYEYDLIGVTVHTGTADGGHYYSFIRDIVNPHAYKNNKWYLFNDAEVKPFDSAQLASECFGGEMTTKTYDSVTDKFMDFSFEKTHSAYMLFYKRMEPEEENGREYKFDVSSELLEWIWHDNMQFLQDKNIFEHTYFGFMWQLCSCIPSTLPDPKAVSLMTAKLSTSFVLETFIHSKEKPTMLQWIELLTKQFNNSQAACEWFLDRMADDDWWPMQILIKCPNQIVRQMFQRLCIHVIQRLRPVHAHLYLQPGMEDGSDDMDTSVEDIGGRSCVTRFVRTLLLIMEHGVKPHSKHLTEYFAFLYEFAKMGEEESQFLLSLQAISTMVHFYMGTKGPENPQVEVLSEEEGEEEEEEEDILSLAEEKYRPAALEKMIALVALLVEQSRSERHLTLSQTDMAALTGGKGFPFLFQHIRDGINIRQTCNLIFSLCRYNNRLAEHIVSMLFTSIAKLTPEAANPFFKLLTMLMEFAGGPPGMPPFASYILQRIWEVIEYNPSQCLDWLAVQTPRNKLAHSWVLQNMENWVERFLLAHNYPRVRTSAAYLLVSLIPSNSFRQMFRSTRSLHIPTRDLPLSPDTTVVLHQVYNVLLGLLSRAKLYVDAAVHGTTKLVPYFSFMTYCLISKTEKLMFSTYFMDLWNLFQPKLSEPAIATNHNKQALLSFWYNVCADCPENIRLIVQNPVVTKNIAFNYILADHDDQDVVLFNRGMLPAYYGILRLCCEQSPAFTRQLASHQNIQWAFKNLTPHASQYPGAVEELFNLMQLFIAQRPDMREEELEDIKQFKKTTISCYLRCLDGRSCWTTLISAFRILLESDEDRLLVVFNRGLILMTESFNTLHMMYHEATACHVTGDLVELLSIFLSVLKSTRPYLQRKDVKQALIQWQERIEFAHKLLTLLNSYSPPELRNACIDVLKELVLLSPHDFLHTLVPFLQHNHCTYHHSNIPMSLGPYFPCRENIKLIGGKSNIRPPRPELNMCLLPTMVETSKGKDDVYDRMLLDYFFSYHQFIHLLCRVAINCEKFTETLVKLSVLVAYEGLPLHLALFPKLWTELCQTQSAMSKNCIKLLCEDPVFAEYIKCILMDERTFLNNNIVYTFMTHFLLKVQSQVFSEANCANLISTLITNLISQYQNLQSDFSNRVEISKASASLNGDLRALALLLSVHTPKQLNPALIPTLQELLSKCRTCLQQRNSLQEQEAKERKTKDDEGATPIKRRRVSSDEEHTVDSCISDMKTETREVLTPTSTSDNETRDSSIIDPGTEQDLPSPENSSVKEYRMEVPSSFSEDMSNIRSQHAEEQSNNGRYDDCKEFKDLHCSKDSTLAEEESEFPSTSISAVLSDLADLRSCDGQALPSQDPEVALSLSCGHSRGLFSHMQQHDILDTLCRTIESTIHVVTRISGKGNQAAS
# UniProt Q7Z4H7: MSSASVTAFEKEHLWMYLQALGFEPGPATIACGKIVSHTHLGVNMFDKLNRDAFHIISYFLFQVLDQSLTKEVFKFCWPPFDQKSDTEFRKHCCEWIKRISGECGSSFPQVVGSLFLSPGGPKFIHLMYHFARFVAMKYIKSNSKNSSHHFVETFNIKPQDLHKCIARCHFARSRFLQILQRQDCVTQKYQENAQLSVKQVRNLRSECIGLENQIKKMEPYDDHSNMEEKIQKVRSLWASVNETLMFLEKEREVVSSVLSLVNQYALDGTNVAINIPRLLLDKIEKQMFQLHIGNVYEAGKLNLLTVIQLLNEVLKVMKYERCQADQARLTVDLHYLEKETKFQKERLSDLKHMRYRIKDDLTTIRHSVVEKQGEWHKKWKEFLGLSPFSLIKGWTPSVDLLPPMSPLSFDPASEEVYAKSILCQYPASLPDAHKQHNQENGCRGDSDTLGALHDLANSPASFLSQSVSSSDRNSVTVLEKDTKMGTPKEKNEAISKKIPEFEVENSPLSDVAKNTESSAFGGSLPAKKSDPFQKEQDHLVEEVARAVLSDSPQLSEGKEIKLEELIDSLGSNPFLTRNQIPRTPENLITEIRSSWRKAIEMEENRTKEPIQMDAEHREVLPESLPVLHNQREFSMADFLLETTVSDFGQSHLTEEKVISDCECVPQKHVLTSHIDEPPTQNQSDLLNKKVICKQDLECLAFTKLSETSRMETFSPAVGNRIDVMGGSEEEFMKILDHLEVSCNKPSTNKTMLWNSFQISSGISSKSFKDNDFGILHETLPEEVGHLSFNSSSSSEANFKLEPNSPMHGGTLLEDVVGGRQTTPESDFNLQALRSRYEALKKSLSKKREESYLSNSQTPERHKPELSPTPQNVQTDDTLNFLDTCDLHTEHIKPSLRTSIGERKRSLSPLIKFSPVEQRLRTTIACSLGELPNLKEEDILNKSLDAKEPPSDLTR
# UniProt Q7KYR7: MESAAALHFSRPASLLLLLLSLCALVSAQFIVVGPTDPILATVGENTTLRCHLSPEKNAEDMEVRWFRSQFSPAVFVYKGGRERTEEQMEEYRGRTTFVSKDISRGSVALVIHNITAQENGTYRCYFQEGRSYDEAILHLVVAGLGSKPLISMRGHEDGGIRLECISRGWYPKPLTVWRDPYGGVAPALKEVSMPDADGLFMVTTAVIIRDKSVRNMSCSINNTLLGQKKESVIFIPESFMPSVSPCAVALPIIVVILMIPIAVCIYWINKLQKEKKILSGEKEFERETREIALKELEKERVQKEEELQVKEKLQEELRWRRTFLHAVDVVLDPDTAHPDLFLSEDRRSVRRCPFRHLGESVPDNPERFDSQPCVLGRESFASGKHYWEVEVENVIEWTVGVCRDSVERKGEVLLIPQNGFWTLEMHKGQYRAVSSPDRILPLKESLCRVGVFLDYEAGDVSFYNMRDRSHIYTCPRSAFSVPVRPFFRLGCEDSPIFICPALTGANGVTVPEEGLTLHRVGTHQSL
# UniProt Q86UK7: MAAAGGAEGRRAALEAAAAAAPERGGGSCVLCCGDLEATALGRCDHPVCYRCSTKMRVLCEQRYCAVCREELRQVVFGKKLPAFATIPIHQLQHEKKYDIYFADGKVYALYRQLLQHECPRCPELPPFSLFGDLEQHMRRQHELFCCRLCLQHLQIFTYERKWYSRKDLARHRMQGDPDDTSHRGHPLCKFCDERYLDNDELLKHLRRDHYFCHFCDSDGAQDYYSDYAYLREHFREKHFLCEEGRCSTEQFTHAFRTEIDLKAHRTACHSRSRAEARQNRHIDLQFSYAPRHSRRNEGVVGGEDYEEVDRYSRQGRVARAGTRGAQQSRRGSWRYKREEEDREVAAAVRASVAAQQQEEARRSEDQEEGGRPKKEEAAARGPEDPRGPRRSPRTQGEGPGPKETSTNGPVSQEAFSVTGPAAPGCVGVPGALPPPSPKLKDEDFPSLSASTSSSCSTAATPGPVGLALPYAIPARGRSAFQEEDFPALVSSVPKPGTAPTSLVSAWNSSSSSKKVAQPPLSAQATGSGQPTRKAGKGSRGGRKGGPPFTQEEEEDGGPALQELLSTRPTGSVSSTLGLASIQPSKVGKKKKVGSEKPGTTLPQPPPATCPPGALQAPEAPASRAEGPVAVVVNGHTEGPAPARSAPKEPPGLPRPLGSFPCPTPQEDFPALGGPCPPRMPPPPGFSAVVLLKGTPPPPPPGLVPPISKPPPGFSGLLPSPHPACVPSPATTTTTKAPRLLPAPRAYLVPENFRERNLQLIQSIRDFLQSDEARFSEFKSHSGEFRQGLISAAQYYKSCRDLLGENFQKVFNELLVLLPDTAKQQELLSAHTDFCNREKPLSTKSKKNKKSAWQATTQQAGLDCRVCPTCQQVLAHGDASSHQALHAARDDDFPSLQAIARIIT
# The other results are listed elsewhere or left out. The data scatter; read single values as rough.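 Many melting curves are irregular; where none melted, Tm was taken as 64 °C.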
# Compound: CCc1cnccc1C(=O)Nc1cc2c(cc1F)NC(=O)CC2
# Experiment: melting temperature shift (DMSO Tm minus MBE1-treated Tm) in cellular thermal proteome profiling; higher = less thermal stabilization by MBE1 (negative = stabilized by MBE1)
# Settings: A375
Target,melting temperature shift (MBE1 concentration: 100 nM) [°C],melting temperature shift (MBE1 concentration: 1 uM) [°C]
UniProt Q76L83,-1.19,-1.08
CD109 (UniProt Q6YHK3),-2.12,1.39
VPS13B (UniProt Q7Z7G8),-0.0733,1.22
FIP1L1 (UniProt Q6UN15),-0.616,-0.974
COX15 (UniProt Q7KZN9),-0.402,-0.0532
UniProt Q7L590,-0.562,8.78
UniProt Q6ZNE5,-0.36,0.644
TRMT1L (UniProt Q7Z2T5),0.727,0.855
UniProt Q6PCB7,-0.0941,-0.0565
TTC33 (UniProt Q6PID6),-2.94,-1.58
DHDDS (UniProt Q86SQ9),-2.21,-0.0939
EPM2AIP1 (UniProt Q7L775),0.342,0.336
UniProt Q6ZUT6,-0.641,-0.128
STRADA (UniProt Q7RTN6),4.52,0.983
ENOSF1 (UniProt Q7L5Y1),-2.27,1.82
HUWE1 (UniProt Q7Z6Z7),0.379,0.513
USP34 (UniProt Q70CQ2),-0.677,-0.447
HAUS6 (UniProt Q7Z4H7),-0.733,-0.467
BTN2A1 (UniProt Q7KYR7),-0.872,0.711
TMEM65 (UniProt Q6PI78),-1.37,-2.4
UniProt Q6ZN55,0.801,-0.692
GIGYF2 (UniProt Q6Y7W6),-0.96,-0.414
DNMBP (UniProt Q6XZF7),-0.626,-0.353
UniProt Q6UWZ7,-3.92,0.543
UniProt Q7Z494,-0.245,-0.507
ZNF598 (UniProt Q86UK7),-0.875,-0.565

# 2 entries drawn at random from those above:
Target,melting temperature shift (MBE1 concentration: 100 nM) [°C],melting temperature shift (MBE1 concentration: 1 uM) [°C]
UniProt Q7Z494,-0.245,-0.507
USP34 (UniProt Q70CQ2),-0.677,-0.447
